Values from PubChem BioAssay AID1224830 (NIAID, 2016).

Test: 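Host factors that control LPS-induced TNF expression in human macrophages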 (primary screen)
Cells: human THP-1 monocytic leukaemia cells, TNF dual-luciferase reporter clone, PMA-differentiated to macrophage-like cells
Reagent: siRNA pool against human genes, 50 nM
Duration: LPS for 4 h, given about 3 days after siRNA transfection
Treatment: bacterial LPS (TLR4 ligand), 10 ng/ml
Read-out: 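TNF firefly reporter luminescence divided by renilla, normalised to the plate median, then turned into a robust z-score for each replicate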
Reading the numbers: TNF reporter robust z-score: higher = stronger TNF reporter response to LPS
Active means: 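a well is active when its z-score exceeds 2.8 or falls below -1.5; control wells carry no call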
Shown is a random part of about 18,000 reagents. Of all reagents, about 2,900 (16%) got an active call. 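Calls are made per well; low scores hint the gene aids the LPS response, high scores that it dampens it.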 Repeated entries: four replicate wells of each siRNA pool. No sequences are given here.

no.	target	PubChem SID	TNF reporter robust z-score	activity call
1	CEP250	SID315454678	-1.27	inactive
2	CEP250	SID315454678	-1.53	active
3	CEP250	SID315454678	-0.72	inactive
4	CEP250	SID315454678	-0.75	inactive
5	ZNF23	SID315452206	1.09	inactive
6	ZNF23	SID315452206	1.68	inactive
7	ZNF23	SID315452206	1.51	inactive
8	ZNF23	SID315452206	2.22	inactive
9	CLCN5	SID315447959	-0.16	inactive
10	CLCN5	SID315447959	-0.39	inactive
11	CLCN5	SID315447959	0.26	inactive
12	CLCN5	SID315447959	0.01	inactive
13	SATB2	SID315455155	1.31	inactive
14	SATB2	SID315455155	0.83	inactive
15	SATB2	SID315455155	0.21	inactive
16	SATB2	SID315455155	0.17	inactive
17	CD109	SID315461988	0.01	inactive
18	CD109	SID315461988	0.41	inactive
19	CD109	SID315461988	0.24	inactive
20	CD109	SID315461988	0.92	inactive
21	ARHGAP19	SID315460625	-0.55	inactive
22	ARHGAP19	SID315460625	-0.82	inactive
23	ARHGAP19	SID315460625	-0.29	inactive
24	ARHGAP19	SID315460625	-0.46	inactive
25	MCAT	SID315456051	1.41	inactive
26	MCAT	SID315456051	9.05	active
27	MCAT	SID315456051	1.76	inactive
28	MCAT	SID315456051	0.53	inactive
29	CCNF	SID315447744	-2.06	active
30	CCNF	SID315447744	-0.22	inactive
31	CCNF	SID315447744	1.46	inactive
32	CCNF	SID315447744	-0.53	inactive
33	TSPAN17	SID315455744	-1.11	inactive
34	TSPAN17	SID315455744	0.12	inactive
35	TSPAN17	SID315455744	-0.4	inactive
36	TSPAN17	SID315455744	-0.64	inactive
37	PFKFB1	SID315450530	3.11	active
38	PFKFB1	SID315450530	2.9	active
39	PFKFB1	SID315450530	-0.85	inactive
40	PFKFB1	SID315450530	-0.38	inactive
41	ZNF528	SID315460357	-1.56	active
42	ZNF528	SID315460357	-0.94	inactive
43	ZNF528	SID315460357	-1.58	active
44	ZNF528	SID315460357	-1.25	inactive
45	GABRA3	SID315448798	0.58	inactive
46	GABRA3	SID315448798	1.05	inactive
47	GABRA3	SID315448798	-1.13	inactive
48	GABRA3	SID315448798	0.03	inactive
49	OR5H1	SID315455776	0.82	inactive
50	OR5H1	SID315455776	0.73	inactive
51	OR5H1	SID315455776	1.04	inactive
52	OR5H1	SID315455776	-0.57	inactive
53	NRN1	SID315456624	-1.42	inactive
54	NRN1	SID315456624	-1.14	inactive
55	NRN1	SID315456624	0.33	inactive
56	NRN1	SID315456624	-1.54	active
57	OR2B3	SID315464964	3.28	active
58	OR2B3	SID315464964	7.77	active
59	OR2B3	SID315464964	3.5	active
60	OR2B3	SID315464964	4.86	active
61	JOSD1	SID315453685	-0.7	inactive
62	JOSD1	SID315453685	0.01	inactive
63	JOSD1	SID315453685	0.1	inactive
64	JOSD1	SID315453685	-0.34	inactive
65	METTL3	SID315458073	1.58	inactive
66	METTL3	SID315458073	2.15	inactive
67	METTL3	SID315458073	2.09	inactive
68	METTL3	SID315458073	3.92	active
69	SLU7	SID315454199	0.1	inactive
70	SLU7	SID315454199	-0.25	inactive
71	SLU7	SID315454199	0	inactive
72	SLU7	SID315454199	-1.05	inactive
73	ZNF155	SID315452259	1.37	inactive
74	ZNF155	SID315452259	2.36	inactive
75	ZNF155	SID315452259	2.59	inactive
76	ZNF155	SID315452259	2.63	inactive
77	PIP5K1B	SID315452533	0.61	inactive
78	PIP5K1B	SID315452533	-0.79	inactive
79	PIP5K1B	SID315452533	-0.37	inactive
80	PIP5K1B	SID315452533	-0.32	inactive
81	BAGE5	SID315460659	-0.5	inactive
82	BAGE5	SID315460659	0.85	inactive
83	BAGE5	SID315460659	0.4	inactive
84	BAGE5	SID315460659	0.45	inactive
85	ACSL3	SID315448626	-0.3	inactive
86	ACSL3	SID315448626	0.08	inactive
87	ACSL3	SID315448626	-0.84	inactive
88	ACSL3	SID315448626	3.14	active
89	PDIK1L	SID315462411	-0.38	inactive
90	PDIK1L	SID315462411	0.52	inactive
91	PDIK1L	SID315462411	-0.16	inactive
92	PDIK1L	SID315462411	0.26	inactive
93	NRP2	SID315452855	-1.11	inactive
94	NRP2	SID315452855	-0.9	inactive
95	NRP2	SID315452855	-1.03	inactive
96	NRP2	SID315452855	-0.47	inactive
97	GHSR	SID315448894	1.44	inactive
98	GHSR	SID315448894	2.1	inactive
99	GHSR	SID315448894	0.06	inactive
100	GHSR	SID315448894	1.54	inactive
101	DDIT4L	SID315461297	-0.38	inactive
102	DDIT4L	SID315461297	0.01	inactive
103	DDIT4L	SID315461297	-0.81	inactive
104	DDIT4L	SID315461297	-0.64	inactive
105	PTPRD	SID315450965	0.84	inactive
106	PTPRD	SID315450965	-0.48	inactive
107	PTPRD	SID315450965	0.83	inactive
108	PTPRD	SID315450965	2.22	inactive
109	MRPS35	SID315458710	-1.9	active
110	MRPS35	SID315458710	-2.12	active
111	MRPS35	SID315458710	-1.81	active
112	MRPS35	SID315458710	-1.89	active
